# Literature values, collected in US9550980B2, “Composition and methods for the production of L-homoalanine” (The Regents of the University of California, priority 2010, dated 2017).
# At least one compound was matched to its structure with a doubt left.
# Conditions: cited from earlier work
smiles,measurement,value
"CC[C@H](C(N)=O)N1CCCC1=O (single isomer, unassigned) [R-enantiomer of levetiracetam]",antiepileptic activity,no antiepileptic activity
